Values of other authors in patent US11324965B2, “Non-invasive energy upconversion methods and systems” (IMMUNOLIGHT, LLC., priority 2009, dated 2022).
For at least one compound, name, drawing or mass did not settle the structure.

Key:
[1] = clinical studies, 652 nm light
tumors = conditions: in vivo

For Oc1cccc(-c2c3nc(c(-c4cccc(O)c4)c4ccc([nH]4)c(-c4cccc(O)c4)c4nc(c(-c5cccc(O)c5)c5ccc2[nH]5)CC4)C=C3)c1 [Foscan, Tetra (m-hydroxyphenyl) chlorin], the tissue effect [1] is given as “up to 10 mm” and the “selectivity for tumors compared to normal tissues” value (tumors) is given as “more selectively a photosensitizer in tumors than normal tissues”.
